Results on 53 compounds are retold here after PubChem BioAssay AID1487 (National Center for Advancing Translational Sciences (NCATS), 2009).

The list shows a part of the results. Further columns of the screen follow, without active or inactive calls. Most of these compounds were active or inconclusive in the main read-out, so they are no random draw. The note in brackets gives the kind of curve behind each potency; many fits are weak.

The nature of the assay: qHTS Assay for Modulators of Lamin A Splicing. Conditions: HeLa LMNA splicing GFP/RFP minigene ratio, 48 h. Summed up: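 S3 HeLa cells stably expressing lamin A-EGFP splicing minigene plus DsRed2, 600 cells/well, 48 h compound exposure at 37C. Laser-scanning cytometry; analysed as GFP (500-530 nm)/RFP (575-640 nm) total intensity ratio; 0.5% DMSO vehicle.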
A general note: Quantitative high-throughput screening tests each substance at several concentrations.

Setting [1] is: measured here: GFP splicing reporter channel.
The mark [2] stands for this setting: measured here: RFP viability control channel.

One may read the AC50 as the concentration at which the activity in the assay is half-maximal. Regarding `COc1ccc(CNS(=O)(=O)c2cc3c(cc2Cl)N(C(C)=O)CCO3)cc1`, the AC50 under setting [1] is 5.01 µM [falling, partial curve, poor fit].
Regarding `C=CCn1c(SCC(=O)N2CCc3ccccc3C2)nc2sc(CC)cc2c1=O`, the AC50 is, setting by setting: under setting [1], 35.5 µM [rising, single point]; under setting [2], 22.4 µM [rising, partial curve].
Turning to `COc1cc(NC(=O)CN2CCN(S(=O)(=O)c3ccc(Br)cc3)CC2)cc(OC)c1`, under setting [1], the AC50 was 0.1 µM [rising, full curve, poor fit].
Regarding `COc1ccc(CNC(=O)N2CCN(c3ccc(F)cc3)CC2)cc1Cl`, the AC50 by setting is: under setting [1], 5.62 µM [rising, single point]; under setting [2], 5.62 µM [rising, single point].
As to `O=C(COc1ccccc1C(=O)O)Nc1nc2ccc([N+](=O)[O-])cc2s1`, the AC50 under setting [2] was 31.6 µM [rising, single point].
`CCCOC(=O)c1cccc(NC(=O)c2c(-c3ccccc3Cl)noc2C)c1`: the AC50 under setting [2] is 6.31 µM [rising, single point].
Take `O=C(COn1nnc2ccc(S(=O)(=O)N3CCOCC3)cc21)Nc1c(F)c(F)c(F)c(F)c1F`: the AC50 was 1.26 µM [rising, partial curve, poor fit] under setting [1] and 20 µM [rising, partial curve] under setting [2].
For the compound `Cc1cc(C)cc(-n2c(SCC(=O)N3CCC(C)CC3)nc3c([nH]c4ccccc43)c2=O)c1`, the AC50 under setting [1] was 0.02 µM [falling, full curve, poor fit] and the AC50 under setting [2] was 0.0224 µM [falling, full curve, poor fit].
Regarding `CCCCC1=CC2=CC(=O)C(C)(OC(=O)CC)C(=O)C2=CN1Cc1ccc2c(c1)OCO2` (configuration not stated), the AC50 under setting [1] is 1.41 µM [falling, partial curve, poor fit] and the AC50 under setting [2] is 0.126 µM [falling, partial curve, poor fit].
`COc1ccc(NS(=O)(=O)c2ccc(NC(=O)c3ccc(N(C)S(C)(=O)=O)cc3)cc2)cc1`: the AC50 under setting [2] is 4.47 µM [rising, full curve].
Turning to `CC(C)(C)OC(=O)NNC(=O)Nc1ccccc1C(F)(F)F`, the AC50 is 6.31 µM [rising, partial curve, poor fit] under setting [1] and 1.78 µM [rising, full curve] under setting [2].
As to `COc1ccc(Nc2oc(-c3ccc(F)cc3)nc2C#N)cc1`, the AC50 under setting [1] is 6.31 µM [rising, single point].
Regarding `Cc1ccc(NC(=O)CSc2nnc(-c3ccco3)o2)c(C)c1`, the AC50 under setting [2] was 0.00316 µM [falling, full curve, poor fit].
On the same count and under the same terms, then `COc1ccc(NC(=O)/C=C/c2ccc(C)o2)cc1S(=O)(=O)N1CCOCC1`, with 11.2 µM [rising, single point].
Turning to `CCN(CC)C(=O)c1ccccc1NC(=O)CN1C(=O)c2ccccc2C1=O`, the AC50 under setting [1] was 35.5 µM [falling, single point].
For `Cn1c(=O)c2ncn(CC(=O)NC3CCCCCC3)c2n(C)c1=O`, the AC50 under setting [2] was 0.0398 µM [falling, full curve].
Take `CC(=O)Nc1nc(-c2ccc(Cl)cc2)ns1`: the AC50 was 0.0398 µM [rising, full curve, poor fit] under setting [1] and 15.8 µM [rising, partial curve] under setting [2].
With `CCc1ccc(OCCOCC(O)CN2CCN(Cc3ccc(Cl)cc3)CC2)cc1` (configuration not stated), the AC50 runs as follows: under setting [1], 10 µM [rising, partial curve, poor fit]; under setting [2], 15.8 µM [rising, partial curve].
Consider `c1ccc(-n2nnnc2SCc2cccc3nsnc23)cc1`, for which the AC50 under setting [1] is 20 µM [rising, single point].
For the compound `Cc1ccc([N+](=O)[O-])cc1S(=O)(=O)N(C(=O)c1ccncc1)c1ccc2oc3c(c2c1)CCCC3`, the AC50 under setting [2] is 25.1 µM [rising, single point].
On to `O=C1CCCN1CCCNC(=S)Nc1ccc(Cl)cc1Cl`, for which, under setting [2], the AC50 was 28.2 µM [falling, single point].
As for `CN(C)CCCn1c(SCC(=O)N2CC(=O)Nc3ccccc32)nc2ccccc2c1=O`, the AC50 under setting [1] was 0.0708 µM [falling, full curve, poor fit].
Consider `COc1ccc(CNC(=O)C2CCCN(S(=O)(=O)c3ccc4c(ccn4C)c3)C2)c(OC)c1` (configuration not stated), for which the AC50 under setting [2] is 2.82 µM [rising, partial curve, poor fit].
Turning to `Cn1ccnc1C(=O)c1ccc(NN)c([N+](=O)[O-])c1`, under setting [2], the AC50 was 14.1 µM [rising, single point].
With `CCOc1ccc2nc(N3CCN(C(=O)c4ccco4)CC3)sc2c1`, the AC50 by setting is: under setting [1], 0.224 µM [falling, full curve, poor fit]; under setting [2], 0.00316 µM [falling, full curve, poor fit].
For `CC(C)Cn1c(-c2nn(C)cc2Cl)n[nH]c1=S`, the AC50 under setting [1] is 1 µM [rising, partial curve].
`O=C(COc1ccc2ccccc2c1)NCCc1ccc2c(c1)OCCO2`: the AC50 under setting [2] was 22.4 µM [rising, single point].
Take `O=C(C1CCC(Cn2c(=O)c3sccc3n(Cc3ccccc3)c2=O)CC1)N1CCOCC1` (configuration not stated): the AC50 under setting [2] is 5.01 µM [falling, full curve, poor fit].
Regarding `Cn1c(=O)n(Cc2ccc(Cl)cc2)c(=O)c2c1nc1n2CCN1Cc1ccco1`, the AC50 under setting [1] was 14.1 µM [rising, partial curve, poor fit].
For the compound `Cc1ccc(NC(=O)/C(Cl)=C/c2ccccc2)cc1C`, the AC50 was 35.5 µM [rising, single point] under setting [1] and 25.1 µM [rising, partial curve] under setting [2].
Take `O=C(NCc1ccco1)c1cc2nc(-c3cccs3)cc(C(F)(F)F)n2n1`: the AC50 under setting [1] is 0.0355 µM [rising, full curve, poor fit].
With `CC(=O)O[C@]1(C(C)=O)CC[C@H]2[C@@H]3C=C(C)C4=CC(=O)CC[C@]4(C)[C@H]3CC[C@@]21C`, the AC50 is 2.82 µM [falling, full curve, poor fit] under setting [1] and 8.91 µM [falling, partial curve] under setting [2].
As to `COc1ccc(S(=O)(=O)c2c(Nc3ccccc3F)sc(C(=O)c3cccc(OC)c3)c2N)cc1`, the AC50 under setting [2] is 2.24 µM [rising, full curve].
As for `CCOC(=O)c1[nH]c(C)c(C(=O)OCC(=O)Nc2sc3c(c2C#N)CCCCC3)c1C`, the AC50 reads like this: under setting [1], 1.78 µM [falling, partial curve, poor fit]; under setting [2], 22.4 µM [falling, partial curve, poor fit].
With `CCOC(=O)C1=C(c2ccccc2)N(C)C(=O)NC1c1ccc(O)c(OC)c1` (configuration not stated), the AC50 is 0.631 µM [falling, full curve] under setting [1] and 0.631 µM [falling, full curve] under setting [2].
In the case of `O=c1c2ccc(Cl)cc2nc(-c2cccc(C(F)(F)F)c2)n1O`, the AC50 is 0.224 µM [falling, full curve, poor fit] under setting [1] and 3.16 µM [falling, single point] under setting [2].
For `CCOC(=O)c1sc(NC(=O)CSc2nc3c(cc2C#N)CCCCCC3)c(C#N)c1C`, the AC50 under setting [2] is 7.94 µM [rising, partial curve, poor fit].
For `CC(NCC(O)COc1ccc(S(=O)(=O)N2CCOCC2)cc1)c1ccccc1` (configuration not stated), under setting [1], the AC50 was 3.16 µM [falling, partial curve, poor fit].
Turning to `Cc1ccc(-c2csc3nc(C)n(-n4c(C)ccc4C)c(=O)c23)o1`, the AC50 runs as follows: under setting [1], 5.01 µM [rising, partial curve]; under setting [2], 7.94 µM [rising, partial curve].
For the compound `S=C(NCc1ccco1)Nc1cc(Cl)c(Cl)cc1Cl`, the AC50 under setting [2] is 12.6 µM [rising, partial curve].
On to `Cc1ccccc1CNC(=O)C(=O)NCC(c1ccco1)S(=O)(=O)c1cccs1` (configuration not stated), for which the AC50 was 11.2 µM [falling, partial curve] under setting [1] and 11.2 µM [falling, partial curve, poor fit] under setting [2].
As for `COc1cc2c(cc1NC(=O)Nc1ccccc1)oc1ccccc12`, under setting [1], the AC50 is 0.0282 µM [falling, single point].
As for `CCc1cc(C(=O)NNC(=S)NC(C)c2ccccc2)cs1` (configuration not stated), the AC50 under setting [2] is 22.4 µM [rising, single point].
`COc1ccc(C(=O)NCc2ccc(N3CCN(C(=O)OC(C)(C)C)CC3)cc2)cc1`: the AC50 under setting [2] was 35.5 µM [rising, single point].
As for `O=C(Nc1nccs1)c1sc2ccccc2c1Cl`, the AC50 under setting [2] is 11.2 µM [rising, partial curve].
On the same count and under the same terms, then `CC(=O)NCCOc1nc(N2CCCCC2)nc(N2CCCCC2)n1`, with 0.0447 µM [falling, full curve, poor fit].
On the same count and under the same terms, the figure for `C=CCNC(=S)NNC(=O)c1ccc(OCCCC)cc1` is 31.6 µM [rising, single point].
With `Cn1c(SCc2nnc(-c3ccccc3Br)o2)nc2sc3c(c2c1=O)CCC3`, the AC50 reads like this: under setting [1], 12.6 µM [rising, partial curve]; under setting [2], 12.6 µM [rising, partial curve].
`Cn1c(=O)oc2cc(S(=O)(=O)CCC(=O)N3CCN(c4cccc(Cl)c4)CC3)ccc21`: under setting [2], the AC50 was 2.24 µM [rising, partial curve, poor fit].
Still for that read-out and setting: then `O=C(/C=C/c1cccc([N+](=O)[O-])c1)OC1CCCCC1=O` (configuration not stated), with 0.224 µM [falling, full curve, poor fit].
For the compound `COc1ccc(CC(=O)N/N=C(\C)c2ccccn2)cc1`, the AC50 by setting is: under setting [1], 0.178 µM [rising, full curve, poor fit]; under setting [2], 22.4 µM [rising, partial curve].
For the compound `O=C(N/C(=C/c1cccc(Br)c1)c1nc(=S)[nH][nH]1)c1ccccc1`, the AC50 reads like this: under setting [1], 35.5 µM [falling, single point]; under setting [2], 35.5 µM [falling, single point].
Regarding `Cc1ccc(C)c(N2CCN(S(=O)(=O)c3cc(C(=O)Nc4ccc(Oc5ccccc5)cc4)ccc3F)CC2)c1`, the AC50 under setting [1] was 0.794 µM [falling, full curve, poor fit].
